Experimental data taken from article doi:10.1101/2021.11.04.467245 (bioRxiv, 2021).
Results are given in words; binding and its absence hold for the method and conditions named. In cells and extracts the contact can be indirect. Some results given as binding are weak or reduced against the parent protein; the word gives no strength.

Chains of the proteins cited; added tags and fusions are not shown. Lines headed by an entry give the natural chain unless they say otherwise; changes in a name come on top. Residues count along the entry.
UniProt Q8TD16: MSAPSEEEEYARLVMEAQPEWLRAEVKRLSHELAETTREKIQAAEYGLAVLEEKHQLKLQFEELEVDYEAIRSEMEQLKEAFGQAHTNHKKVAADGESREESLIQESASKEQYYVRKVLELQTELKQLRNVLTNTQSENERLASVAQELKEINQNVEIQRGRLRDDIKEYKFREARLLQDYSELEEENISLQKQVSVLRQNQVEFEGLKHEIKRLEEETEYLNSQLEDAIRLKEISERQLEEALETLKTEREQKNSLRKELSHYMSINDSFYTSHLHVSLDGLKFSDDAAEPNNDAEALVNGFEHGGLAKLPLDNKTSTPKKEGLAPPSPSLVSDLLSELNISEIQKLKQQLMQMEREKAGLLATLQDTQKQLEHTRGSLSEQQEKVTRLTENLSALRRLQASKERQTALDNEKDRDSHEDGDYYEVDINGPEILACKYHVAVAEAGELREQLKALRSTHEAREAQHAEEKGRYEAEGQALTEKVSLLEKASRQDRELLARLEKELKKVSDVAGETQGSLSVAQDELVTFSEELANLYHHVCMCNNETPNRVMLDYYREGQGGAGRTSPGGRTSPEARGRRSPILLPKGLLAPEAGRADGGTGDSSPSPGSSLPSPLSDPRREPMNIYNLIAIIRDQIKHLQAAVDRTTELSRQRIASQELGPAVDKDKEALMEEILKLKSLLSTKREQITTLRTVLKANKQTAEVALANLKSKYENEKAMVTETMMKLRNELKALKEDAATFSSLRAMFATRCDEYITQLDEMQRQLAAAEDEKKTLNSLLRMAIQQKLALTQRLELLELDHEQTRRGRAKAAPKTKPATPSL
UniProt Q921C5: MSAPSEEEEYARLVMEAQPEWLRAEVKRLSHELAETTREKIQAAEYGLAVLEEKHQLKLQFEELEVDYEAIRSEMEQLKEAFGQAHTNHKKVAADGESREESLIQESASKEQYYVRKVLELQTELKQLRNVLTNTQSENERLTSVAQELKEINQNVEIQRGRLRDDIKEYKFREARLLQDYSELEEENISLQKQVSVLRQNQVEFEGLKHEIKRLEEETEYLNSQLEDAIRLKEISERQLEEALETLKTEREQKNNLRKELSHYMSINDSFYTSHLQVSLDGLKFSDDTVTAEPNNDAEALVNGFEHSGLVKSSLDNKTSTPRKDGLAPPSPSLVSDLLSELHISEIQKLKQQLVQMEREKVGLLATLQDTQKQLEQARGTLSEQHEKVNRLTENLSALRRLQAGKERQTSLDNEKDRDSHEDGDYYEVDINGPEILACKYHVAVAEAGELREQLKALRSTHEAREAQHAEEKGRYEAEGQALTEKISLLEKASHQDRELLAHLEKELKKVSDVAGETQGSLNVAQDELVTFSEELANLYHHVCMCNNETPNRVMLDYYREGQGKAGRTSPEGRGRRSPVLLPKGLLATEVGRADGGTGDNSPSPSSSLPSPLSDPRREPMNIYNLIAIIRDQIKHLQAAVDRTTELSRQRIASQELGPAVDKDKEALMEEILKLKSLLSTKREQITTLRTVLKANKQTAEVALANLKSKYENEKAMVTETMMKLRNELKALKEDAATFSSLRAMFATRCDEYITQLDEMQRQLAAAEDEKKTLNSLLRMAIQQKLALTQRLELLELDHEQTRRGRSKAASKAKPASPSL
GFP-BICD2 [1-575]: residues 1-575 of Q921C5

Tests used:
Experiment in all cases: co-IP
[1] = biological target: BICD2 (endogenous, HeLa) (human (endogenous in HeLa)) (UniProt Q8TD16)
[2] = biological target: GFP-BICD2 [1-575] (mouse) (UniProt Q921C5)
[3] = biological target: GFP-BICD2 [T319A, S320A, T321A] (mouse) (UniProt Q921C5)
[4] = biological target: GFP-BICD2 wild type (mouse) (UniProt Q921C5)

binding [2]: binds
binding [3]: no binding
binding [4]: binds
Substance: PLK1 (endogenous, HeLa) (from UniProt P53350 1-603) (enzyme)
binding [1]: binds
